The target in the experiment is T1, human BAFF (residues 82-285) (human, UniProt Q9Y275 82-285).
T1 construct: Coated on plates in the ELISAs; also used biotinylated or free in solution for phage sorting; also called BAFF82-285; BLyS82-285
Kind of experiment: phage display selection on BAFF.

Chains of the proteins cited; added tags and fusions are not shown. Lines headed by an entry give the natural chain unless they say otherwise; changes in a name come on top.
UniProt Q9Y275: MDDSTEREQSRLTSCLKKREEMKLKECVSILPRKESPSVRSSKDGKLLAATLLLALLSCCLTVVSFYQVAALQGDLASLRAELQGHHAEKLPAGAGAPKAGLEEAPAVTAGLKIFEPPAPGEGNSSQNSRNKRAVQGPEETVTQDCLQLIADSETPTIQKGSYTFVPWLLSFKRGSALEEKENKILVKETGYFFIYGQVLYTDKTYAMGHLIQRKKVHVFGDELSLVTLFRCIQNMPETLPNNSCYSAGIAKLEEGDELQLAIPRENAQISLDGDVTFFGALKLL

No constants are given. Whether binding was seen depends on the method and setting. Some binding calls cover weakened binding; strength is not graded here.

B1: SEQ ID NO 111 (peptide)
peptide: ECFDPLVRHWVPCNLLRGAGSP
On to B1, for which the binding result was “binds”.

(Values after US20050163775A1, “Combination therapy for B cell disorders” (Genentech, Inc., priority 2003, published 2005).)
